The results in this text go back to article doi:10.1101/346619.

Protein sequences, listed by entry. Tags and fused reporters are not part of them. Residues count along the entry.
UniProt Q6PDQ2, 667-1295: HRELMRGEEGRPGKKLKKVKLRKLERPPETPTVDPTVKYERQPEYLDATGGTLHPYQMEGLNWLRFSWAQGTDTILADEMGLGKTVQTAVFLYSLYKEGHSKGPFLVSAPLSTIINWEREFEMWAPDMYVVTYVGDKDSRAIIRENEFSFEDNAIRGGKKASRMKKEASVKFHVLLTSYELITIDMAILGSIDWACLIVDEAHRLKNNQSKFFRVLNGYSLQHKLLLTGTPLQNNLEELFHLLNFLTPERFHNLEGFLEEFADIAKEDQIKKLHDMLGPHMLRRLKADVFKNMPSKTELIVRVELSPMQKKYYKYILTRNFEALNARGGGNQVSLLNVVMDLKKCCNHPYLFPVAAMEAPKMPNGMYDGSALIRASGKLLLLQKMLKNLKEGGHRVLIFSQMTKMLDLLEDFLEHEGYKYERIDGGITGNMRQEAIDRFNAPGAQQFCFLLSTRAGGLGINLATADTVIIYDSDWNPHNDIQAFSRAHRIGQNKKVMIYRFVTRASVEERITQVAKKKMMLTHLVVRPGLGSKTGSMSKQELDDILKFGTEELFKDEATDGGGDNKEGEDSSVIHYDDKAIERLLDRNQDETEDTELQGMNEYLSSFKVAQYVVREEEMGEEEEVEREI
UniProt P13864, 2-757: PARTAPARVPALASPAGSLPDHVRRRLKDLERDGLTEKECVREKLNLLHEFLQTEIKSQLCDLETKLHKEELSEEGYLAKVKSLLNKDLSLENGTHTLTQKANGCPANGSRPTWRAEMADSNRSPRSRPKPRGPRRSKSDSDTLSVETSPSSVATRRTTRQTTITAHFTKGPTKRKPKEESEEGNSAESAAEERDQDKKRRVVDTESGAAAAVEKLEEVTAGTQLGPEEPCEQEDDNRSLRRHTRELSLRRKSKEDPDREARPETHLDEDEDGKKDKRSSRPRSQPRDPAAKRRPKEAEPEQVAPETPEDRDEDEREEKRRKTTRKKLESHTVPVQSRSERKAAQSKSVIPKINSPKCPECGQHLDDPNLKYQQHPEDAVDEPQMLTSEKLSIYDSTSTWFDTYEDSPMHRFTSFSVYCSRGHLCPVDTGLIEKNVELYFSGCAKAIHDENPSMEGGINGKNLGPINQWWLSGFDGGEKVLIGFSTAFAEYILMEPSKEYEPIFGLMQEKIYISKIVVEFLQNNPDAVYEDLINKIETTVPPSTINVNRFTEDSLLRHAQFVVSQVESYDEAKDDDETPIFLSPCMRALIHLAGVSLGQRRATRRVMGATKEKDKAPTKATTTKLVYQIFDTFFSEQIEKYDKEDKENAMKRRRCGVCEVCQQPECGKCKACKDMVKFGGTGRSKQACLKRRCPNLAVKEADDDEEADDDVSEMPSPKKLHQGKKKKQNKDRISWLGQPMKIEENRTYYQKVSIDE

Holding throughout (assay): two-hybrid
Test [1] concerns the target T1, NCoR1 carboxy-terminal (C) domain (NCoR1-C) (mouse) (UniProt Q60974).
T1 sequence: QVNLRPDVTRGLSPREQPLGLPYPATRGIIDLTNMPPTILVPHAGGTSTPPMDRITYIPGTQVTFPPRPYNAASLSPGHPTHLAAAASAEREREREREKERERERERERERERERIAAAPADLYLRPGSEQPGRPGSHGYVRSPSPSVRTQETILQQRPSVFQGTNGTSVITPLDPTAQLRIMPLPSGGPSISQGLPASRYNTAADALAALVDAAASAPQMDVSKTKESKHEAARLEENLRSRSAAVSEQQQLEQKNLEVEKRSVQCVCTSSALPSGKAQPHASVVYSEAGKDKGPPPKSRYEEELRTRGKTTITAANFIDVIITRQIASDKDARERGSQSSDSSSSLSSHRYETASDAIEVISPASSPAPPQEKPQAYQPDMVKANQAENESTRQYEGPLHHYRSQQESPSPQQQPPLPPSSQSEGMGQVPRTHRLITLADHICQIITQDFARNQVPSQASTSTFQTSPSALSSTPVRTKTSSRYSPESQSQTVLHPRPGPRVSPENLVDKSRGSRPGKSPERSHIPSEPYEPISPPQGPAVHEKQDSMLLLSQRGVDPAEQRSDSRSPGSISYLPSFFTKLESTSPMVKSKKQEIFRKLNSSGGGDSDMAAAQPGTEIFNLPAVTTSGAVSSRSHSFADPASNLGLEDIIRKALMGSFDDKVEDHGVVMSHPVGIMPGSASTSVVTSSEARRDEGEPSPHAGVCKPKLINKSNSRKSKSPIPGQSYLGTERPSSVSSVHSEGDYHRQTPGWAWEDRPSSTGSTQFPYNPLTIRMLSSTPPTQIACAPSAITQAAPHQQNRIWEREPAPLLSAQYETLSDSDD

Test [2] deals with T2, TR2 (NR2C1), two-hybrid fusion (UniProt Q505F1).
T2 sequence: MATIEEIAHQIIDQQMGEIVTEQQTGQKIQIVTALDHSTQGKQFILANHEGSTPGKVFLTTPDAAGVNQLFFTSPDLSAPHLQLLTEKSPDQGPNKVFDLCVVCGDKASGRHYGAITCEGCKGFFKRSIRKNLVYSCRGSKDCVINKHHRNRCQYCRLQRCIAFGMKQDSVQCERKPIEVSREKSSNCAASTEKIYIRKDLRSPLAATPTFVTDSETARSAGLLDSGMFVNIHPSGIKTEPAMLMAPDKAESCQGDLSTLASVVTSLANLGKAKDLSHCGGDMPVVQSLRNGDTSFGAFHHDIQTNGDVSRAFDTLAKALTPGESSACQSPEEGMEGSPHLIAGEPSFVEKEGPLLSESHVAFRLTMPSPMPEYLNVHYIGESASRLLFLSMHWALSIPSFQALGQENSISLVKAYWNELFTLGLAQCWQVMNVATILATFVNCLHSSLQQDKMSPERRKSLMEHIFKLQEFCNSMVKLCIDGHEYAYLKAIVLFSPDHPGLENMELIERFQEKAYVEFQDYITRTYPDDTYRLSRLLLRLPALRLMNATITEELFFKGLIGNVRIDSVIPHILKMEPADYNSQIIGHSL

Test [3] has as its target T3, TR4 (NR2C2), two-hybrid fusion (UniProt P49117).
T3 sequence: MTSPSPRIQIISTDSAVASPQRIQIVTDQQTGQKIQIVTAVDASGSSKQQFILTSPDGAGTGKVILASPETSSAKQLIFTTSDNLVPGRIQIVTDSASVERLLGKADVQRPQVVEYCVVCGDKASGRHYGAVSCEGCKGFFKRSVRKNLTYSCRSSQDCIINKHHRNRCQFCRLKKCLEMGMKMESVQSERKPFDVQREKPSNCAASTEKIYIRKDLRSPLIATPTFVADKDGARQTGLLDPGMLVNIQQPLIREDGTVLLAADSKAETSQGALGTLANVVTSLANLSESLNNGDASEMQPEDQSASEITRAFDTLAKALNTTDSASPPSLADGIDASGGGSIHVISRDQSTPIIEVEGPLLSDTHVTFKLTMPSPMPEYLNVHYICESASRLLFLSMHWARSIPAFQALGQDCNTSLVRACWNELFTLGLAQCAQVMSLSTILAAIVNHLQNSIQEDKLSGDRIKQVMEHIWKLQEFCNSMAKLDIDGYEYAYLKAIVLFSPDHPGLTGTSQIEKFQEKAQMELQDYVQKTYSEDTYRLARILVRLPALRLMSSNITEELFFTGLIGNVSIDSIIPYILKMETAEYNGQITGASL

These are yes or no findings as the source states them, for the method shown. Some entries that bind do so weakly or less than the wild type. Where a sequence is shown, tags or fusion partners need not be part of it.

On to “Mi2β amino acids 667-1295, two-hybrid fusion (from UniProt Q6PDQ2 667-1295) (domain or fragment)”, for which the results for the binding result in test [1], in test [2] and in test [3] were “binds”, “no binding” and “no binding”, respectively.
As for “N-terminus of DNMT1, two-hybrid fusion (from UniProt P13864 2-757) (domain or fragment)”, the binding entry in test [2] and in test [3] was “no binding” in each case.
With “CtBP1, two-hybrid fusion (from UniProt O88712 1-441)”, the binding result was “binds” in test [1], “no binding” in test [2] and “no binding” in test [3].

B1: Sin3A, two-hybrid fusion (protein, UniProt Q60520 1-1274)
chain: MKRRLDDQESPVYAAQQRRIPGSTEAFSHQHRVLAPAPPVYEAVSETMQSATGIQYSVAPNYQVSAVPQSSGSHGPAIAAVHSSHHHPTAVQPHGGQVVQSHAHPAPPVAPVQGQQQFQRLKVEDALSYLDQVKLQFGSQPQVYNDFLDIMKEFKSQSIDTPGVISRVSQLFKGHPDLIMGFNTFLPPGYKIEVQTNDMVNVTTPGQVHQIPTHGIQPQPQPPPQHPSQPSSQSAPTPAQPAPQPTAAKVSKPSQLQAHTPASQQTPPLPPYASPRSPPVQPHTPVTISLGTAPSLQNNQPVEFNHAINYVNKIKNRFQGQPDIYKAFLEILHTYQKEQRNAKEAGGNYTPALTEQEVYAQVARLFKNQEDLLSEFGQFLPDANSSVLLSKTTAEKVDSVRNDHGGTVKKPQLNNKPQRPSQNGCQIRRHSGTGATPPVKKKPKLMSLKESSMADASKHGVGTESLFFDKVRKALRSAEAYENFLRCLVIFNQEVISRAELVQLVSPFLGKFPELFNWFKNFLGYKESVHLESFPKERATEGIAMEIDYASCKRLGSSYRALPKSYQQPKCTGRTPLCKEVLNDTWVSFPSWSEDSTFVSSKKTQYEEHIYRCEDERFELDVVLETNLATIRVLEAIQKKLSRLSAEEQAKFRLDNTLGGTSEVIHRKALQRIYADKAADIIDGLRKNPSIAVPIVLKRLKMKEEEWREAQRGFNKVWREQNEKYYLKSLDHQGINFKQNDTKVLRSKSLLNEIESIYDERQEQATEENAGVPVGPHLSLAYEDKQILEDAAALIIHHVKRQTGIQKEDKYKIKQIMHHFIPDLLFAQRGDLSDVEEEEEEEMDVDEATGAPKKHNGVGGSPPKSKLLFSNTAAQKLRGMDEVYNLFYVNNNWYIFMRLHQILCLRLLRICSQAERQIEEENREREWEREVLGIKRDKSDSPAIQLRLKEPMDVDVEDYYPAFLDMVRSLLDGNIDSSQYEDSLREMFTIHAYIAFTMDKLIQSIVRQLQHIVSDEVCVQVTDLYLAENNNGATGGQLNSQTSRSLLESAYQRKAEQLMSDENCFKLMFIQSQGQVQLTVELLDTEEENSDDPVEAERWSDYVERYMSSDTTSPELREHLAQKPVFLPRNLRRIRKCQRGREQQEKEGKEGNSKKTMENVESLDKLECRFKLNSYKMVYVIKSEDYMYRRTALLRAHQSHERVSKRLHQRFQAWVDKWTKEHVPREMAAETSKWLMGEGLEGLVPCTTTCDTETLHFVSINKYRVKYGTVFKAP
In the case of B1, the binding result in test [1], in test [2] and in test [3] was “binds” each time.

B2: C-terminal domain of SMRT (silencing mediator of retinoic acid and thyroid hormone), two-hybrid fusion (domain or fragment, UniProt Q9WU42 2004-2468)
chain: SPDGVEPISPVSSPSLTHDKGLSKPLEELEKSHLEGELRHKQPGPMKLSAEAAHLPHLRPLPESQPSSSPLLQTAPGIKGHQRVVTLAQHISEVITQDYTRHHPQQLSGPLPAPLYSFPGASCPVLDLRRPPSDLYLPPPDHGTPARGSPHSEGGKRSPEPSKTSVLGSSEDAIEPVSPPEGMTEPGHARSTAYPLLYRDGEQGEPRMGSKSPGNTSQPPAFFSKLTESNSAMVKSKKQEINKKLNTHNRNEPEYNIGQPGTEIFNMPAITGAGLMTCRSQAVQEHASTNMGLEAIIRKALMGKYDQWEEPPPLGANAFNPLNASASLPAAAMPITTADGRSDHALTSPGGGGKAKVSGRPSSRKAKSPAPGLASGDRPPSVSSVHSEGDCNRRTPLTNRVWEDRPSSAGSTPFPYNPLIMRLQAGVMASPPPPGLAAGSGPLAGPHHAWDEEPKPLLCSQYETL
As to B2, the binding entry in test [2] and in test [3] was “no binding” each time.
